Some test systems named below: VAC14 (human); VAPA (human); VEGFA (human); VPS25 (human); VPS29 (human); VPS33B (human); VPS36 (human); VPS37A (human).
Common to all, as to experiment: protein microarray (ProtoArray v5.0), streptavidin-Alexa Fluor 647
Common to all, as to details: 3'-biotin; 20 mM Tris (pH 7.5), 5 mM MgCl2, 100 mM KCl, 0.1% Tween-20, A/T-rich and random oligonucleotide blockers; temperature not stated; high values mean tight binding

Assay [1] relates to Uncharacterized protein C12orf60 (human).
In assay [2] the test system is Uncharacterized protein C17orf66 (human).
Assay [3] relates to Uncharacterized protein C1orf74 (human).
For assay [4], the system named is Uncharacterized protein C2orf57 (human).
Assay [5] relates to Uncharacterized protein C2orf62 (human).
Assay [6] relates to Uncharacterized protein C4orf32 (human).
In assay [7] the test system is Uncharacterized protein C7orf50 (human).
Assay [8] relates to Uncharacterized protein C8orf41 (human).
Assay [9] relates to Uncharacterized protein CXorf38 (human).
Assay [10] relates to V-type proton ATPase subunit F (human).
Assay [11] deals with V-type proton ATPase subunit e 1 (human).
Assay [12] relates to Vesicle-trafficking protein SEC22b (human).

Values joined by “and” are separate entries in the source; they are usually repeats but may differ in a detail not shown here. Identical values can stand only once. The list shows a part of the results.

“GGTGACAGGGGTATGGGGAGGGG [G4-2 biotinylated (Ct1)]”: the binding signal in assay [1] is -0.398 z-score; in assay [2], -0.386 z-score; in assay [3] it was -0.391 z-score; in [4], -0.383 z-score; in [5], -0.397 z-score; in assay [6], -0.368 z-score. Also, the binding signal was 4.88 z-score in assay [7]; -0.378 z-score in assay [8]; -0.389 z-score in [9]; -0.397 z-score in assay [10]; -0.381 z-score in assay [11]; -0.39 z-score with VAC14 (human). Moreover, the binding signal in the assay on VAPA (human) was -0.385 z-score; in the assay with VEGFA (human) it was -0.369 z-score; with VPS25 (human) it was -0.409 z-score; in the assay on VPS29 (human), -0.38 z-score and -0.388 z-score; with VPS33B (human), -0.375 z-score; in the assay on VPS36 (human), -0.398 z-score. In addition, the binding signal in the assay on VPS37A (human) is -0.39 z-score; in assay [12], -0.381 z-score.

The record behind these values is article PMC5996148.
